Inconclusive means that the source gave no clear call. Such entries were picked first, then a sample of the others. For some assays here: A potency beside an inconclusive call is a rough fit, not a confirmed value. Activity calls are given as the source filed them. The calls were made as follows: active = hit-call score of the fitted dose curve at least 0.9, where 1 is the maximum; inconclusive = response in the unintended direction; inactive = score below 0.9. Peptide text beside a SMILES is read from it.
Key:
[1] = read-out: sulfotransferase (SULT2A), SULT2A1 (gene 6822); assay: CLD_SULT2A_6hr: CellzDirect (CLD) Gene Expression Assay for sulfotransferase (SULT2A) at 6 hours (AID 2283669);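 also: hits raise transcript level above the DMSO vehicle baseline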
Outline: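 Primary human hepatocytes from two donor preparations were dosed daily with chemicals or 0.2% DMSO and harvested at 6 h. Transcript induction read by qNPA chemiluminescence, fitted for gain of signal relative to DMSO; morphology-based cytotoxicity annotated.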

The chains behind the UniProt entries cited, without tags or fusion partners. Where a name states a change or a piece, a line headed by the entry shows the natural chain unless it says otherwise.
UniProt P24666: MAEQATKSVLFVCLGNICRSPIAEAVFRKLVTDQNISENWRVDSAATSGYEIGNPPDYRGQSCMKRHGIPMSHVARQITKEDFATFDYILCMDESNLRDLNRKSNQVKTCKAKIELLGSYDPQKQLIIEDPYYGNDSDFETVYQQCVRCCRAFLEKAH
UniProt P07333, whole entry, looked up: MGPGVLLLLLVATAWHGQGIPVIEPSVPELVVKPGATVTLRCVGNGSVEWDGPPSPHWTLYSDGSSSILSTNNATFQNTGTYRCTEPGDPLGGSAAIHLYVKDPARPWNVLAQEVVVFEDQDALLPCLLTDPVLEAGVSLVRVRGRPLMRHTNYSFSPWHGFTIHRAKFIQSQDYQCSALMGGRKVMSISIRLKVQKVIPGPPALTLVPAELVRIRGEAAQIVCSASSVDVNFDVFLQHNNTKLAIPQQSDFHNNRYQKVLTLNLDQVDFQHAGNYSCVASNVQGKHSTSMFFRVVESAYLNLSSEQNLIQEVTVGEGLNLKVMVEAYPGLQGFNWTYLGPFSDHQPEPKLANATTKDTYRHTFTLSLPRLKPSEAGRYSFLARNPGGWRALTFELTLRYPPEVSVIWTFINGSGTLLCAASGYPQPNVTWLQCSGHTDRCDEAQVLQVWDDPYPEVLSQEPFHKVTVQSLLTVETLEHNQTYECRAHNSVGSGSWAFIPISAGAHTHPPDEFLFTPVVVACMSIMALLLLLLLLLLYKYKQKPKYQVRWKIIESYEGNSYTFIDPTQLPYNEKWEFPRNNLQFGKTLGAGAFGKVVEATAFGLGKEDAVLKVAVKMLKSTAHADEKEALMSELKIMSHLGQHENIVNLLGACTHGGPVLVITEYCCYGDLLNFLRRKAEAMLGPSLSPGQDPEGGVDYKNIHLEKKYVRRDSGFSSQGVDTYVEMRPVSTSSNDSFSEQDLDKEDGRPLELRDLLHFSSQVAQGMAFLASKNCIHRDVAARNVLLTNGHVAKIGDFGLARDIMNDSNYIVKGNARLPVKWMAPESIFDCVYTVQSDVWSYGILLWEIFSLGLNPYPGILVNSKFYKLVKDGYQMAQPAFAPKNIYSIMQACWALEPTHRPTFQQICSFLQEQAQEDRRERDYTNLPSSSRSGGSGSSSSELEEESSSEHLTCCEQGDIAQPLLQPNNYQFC
UniProt P08254: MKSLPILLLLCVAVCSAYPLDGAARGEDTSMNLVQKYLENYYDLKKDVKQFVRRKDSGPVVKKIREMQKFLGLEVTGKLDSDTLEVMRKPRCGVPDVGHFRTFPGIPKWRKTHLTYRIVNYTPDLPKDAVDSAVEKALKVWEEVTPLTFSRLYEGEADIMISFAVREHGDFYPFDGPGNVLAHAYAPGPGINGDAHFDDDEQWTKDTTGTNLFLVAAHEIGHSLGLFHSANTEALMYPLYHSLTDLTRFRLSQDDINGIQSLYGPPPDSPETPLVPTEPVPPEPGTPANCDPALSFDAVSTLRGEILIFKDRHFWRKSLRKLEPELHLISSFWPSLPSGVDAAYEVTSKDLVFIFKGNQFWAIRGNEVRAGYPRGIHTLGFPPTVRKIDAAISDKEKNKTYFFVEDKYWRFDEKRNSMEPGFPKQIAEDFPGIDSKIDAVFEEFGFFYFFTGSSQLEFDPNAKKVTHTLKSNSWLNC
UniProt P62136, whole entry, looked up: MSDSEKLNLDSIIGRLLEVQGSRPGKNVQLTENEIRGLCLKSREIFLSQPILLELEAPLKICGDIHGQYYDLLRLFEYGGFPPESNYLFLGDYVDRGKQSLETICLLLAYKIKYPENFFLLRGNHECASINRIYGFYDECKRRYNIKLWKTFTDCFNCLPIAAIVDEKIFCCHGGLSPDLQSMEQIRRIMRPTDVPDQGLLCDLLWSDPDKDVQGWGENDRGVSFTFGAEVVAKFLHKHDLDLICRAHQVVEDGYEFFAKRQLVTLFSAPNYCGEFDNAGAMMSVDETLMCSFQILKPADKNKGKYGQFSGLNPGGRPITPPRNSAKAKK
UniProt P10586, whole entry, looked up: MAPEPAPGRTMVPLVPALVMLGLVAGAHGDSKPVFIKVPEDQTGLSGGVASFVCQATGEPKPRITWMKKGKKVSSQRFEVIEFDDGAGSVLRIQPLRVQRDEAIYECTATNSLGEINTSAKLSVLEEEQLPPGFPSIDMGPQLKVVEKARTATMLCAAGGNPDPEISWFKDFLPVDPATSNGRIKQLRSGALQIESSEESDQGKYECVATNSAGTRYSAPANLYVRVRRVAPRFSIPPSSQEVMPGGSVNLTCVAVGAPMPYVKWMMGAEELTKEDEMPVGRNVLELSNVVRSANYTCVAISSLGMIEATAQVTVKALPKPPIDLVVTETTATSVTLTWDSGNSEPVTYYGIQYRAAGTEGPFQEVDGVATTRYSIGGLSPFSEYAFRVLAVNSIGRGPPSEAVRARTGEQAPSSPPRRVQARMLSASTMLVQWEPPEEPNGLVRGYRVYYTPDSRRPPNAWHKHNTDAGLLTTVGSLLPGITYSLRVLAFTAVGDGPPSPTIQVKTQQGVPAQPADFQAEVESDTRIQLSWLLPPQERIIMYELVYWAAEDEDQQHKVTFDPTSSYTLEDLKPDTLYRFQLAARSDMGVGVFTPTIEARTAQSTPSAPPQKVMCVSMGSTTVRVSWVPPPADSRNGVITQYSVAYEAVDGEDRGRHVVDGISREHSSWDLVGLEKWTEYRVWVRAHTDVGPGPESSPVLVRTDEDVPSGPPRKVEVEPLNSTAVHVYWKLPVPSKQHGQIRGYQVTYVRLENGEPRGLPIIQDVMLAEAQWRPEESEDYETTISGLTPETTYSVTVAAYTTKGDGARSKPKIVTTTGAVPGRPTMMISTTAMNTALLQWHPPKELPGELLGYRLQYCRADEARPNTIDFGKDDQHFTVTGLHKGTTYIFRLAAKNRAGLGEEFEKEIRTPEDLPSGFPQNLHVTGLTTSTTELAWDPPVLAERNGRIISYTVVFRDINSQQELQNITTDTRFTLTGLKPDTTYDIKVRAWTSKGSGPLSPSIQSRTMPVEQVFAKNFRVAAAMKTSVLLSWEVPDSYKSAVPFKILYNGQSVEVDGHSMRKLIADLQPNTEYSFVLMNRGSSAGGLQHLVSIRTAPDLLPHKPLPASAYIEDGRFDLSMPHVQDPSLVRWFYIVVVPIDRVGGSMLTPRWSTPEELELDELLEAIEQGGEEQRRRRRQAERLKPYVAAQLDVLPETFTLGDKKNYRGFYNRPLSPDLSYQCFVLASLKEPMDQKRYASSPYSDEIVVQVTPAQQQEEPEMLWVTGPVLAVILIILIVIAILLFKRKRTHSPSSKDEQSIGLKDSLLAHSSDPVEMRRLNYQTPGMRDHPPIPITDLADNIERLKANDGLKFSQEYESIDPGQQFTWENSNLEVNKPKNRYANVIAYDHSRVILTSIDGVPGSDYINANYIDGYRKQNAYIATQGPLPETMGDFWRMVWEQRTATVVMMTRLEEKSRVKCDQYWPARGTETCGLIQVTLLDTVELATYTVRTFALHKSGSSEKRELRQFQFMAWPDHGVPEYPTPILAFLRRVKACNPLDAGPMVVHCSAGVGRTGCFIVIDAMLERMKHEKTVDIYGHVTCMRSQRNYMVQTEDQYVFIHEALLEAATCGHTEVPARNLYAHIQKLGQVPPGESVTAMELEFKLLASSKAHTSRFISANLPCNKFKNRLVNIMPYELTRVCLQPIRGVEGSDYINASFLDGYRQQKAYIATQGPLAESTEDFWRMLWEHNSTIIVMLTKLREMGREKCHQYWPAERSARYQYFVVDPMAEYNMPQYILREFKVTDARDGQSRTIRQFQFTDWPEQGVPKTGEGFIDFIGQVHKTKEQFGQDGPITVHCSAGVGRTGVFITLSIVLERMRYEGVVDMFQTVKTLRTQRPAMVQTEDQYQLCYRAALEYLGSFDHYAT
UniProt P28827, whole entry, looked up: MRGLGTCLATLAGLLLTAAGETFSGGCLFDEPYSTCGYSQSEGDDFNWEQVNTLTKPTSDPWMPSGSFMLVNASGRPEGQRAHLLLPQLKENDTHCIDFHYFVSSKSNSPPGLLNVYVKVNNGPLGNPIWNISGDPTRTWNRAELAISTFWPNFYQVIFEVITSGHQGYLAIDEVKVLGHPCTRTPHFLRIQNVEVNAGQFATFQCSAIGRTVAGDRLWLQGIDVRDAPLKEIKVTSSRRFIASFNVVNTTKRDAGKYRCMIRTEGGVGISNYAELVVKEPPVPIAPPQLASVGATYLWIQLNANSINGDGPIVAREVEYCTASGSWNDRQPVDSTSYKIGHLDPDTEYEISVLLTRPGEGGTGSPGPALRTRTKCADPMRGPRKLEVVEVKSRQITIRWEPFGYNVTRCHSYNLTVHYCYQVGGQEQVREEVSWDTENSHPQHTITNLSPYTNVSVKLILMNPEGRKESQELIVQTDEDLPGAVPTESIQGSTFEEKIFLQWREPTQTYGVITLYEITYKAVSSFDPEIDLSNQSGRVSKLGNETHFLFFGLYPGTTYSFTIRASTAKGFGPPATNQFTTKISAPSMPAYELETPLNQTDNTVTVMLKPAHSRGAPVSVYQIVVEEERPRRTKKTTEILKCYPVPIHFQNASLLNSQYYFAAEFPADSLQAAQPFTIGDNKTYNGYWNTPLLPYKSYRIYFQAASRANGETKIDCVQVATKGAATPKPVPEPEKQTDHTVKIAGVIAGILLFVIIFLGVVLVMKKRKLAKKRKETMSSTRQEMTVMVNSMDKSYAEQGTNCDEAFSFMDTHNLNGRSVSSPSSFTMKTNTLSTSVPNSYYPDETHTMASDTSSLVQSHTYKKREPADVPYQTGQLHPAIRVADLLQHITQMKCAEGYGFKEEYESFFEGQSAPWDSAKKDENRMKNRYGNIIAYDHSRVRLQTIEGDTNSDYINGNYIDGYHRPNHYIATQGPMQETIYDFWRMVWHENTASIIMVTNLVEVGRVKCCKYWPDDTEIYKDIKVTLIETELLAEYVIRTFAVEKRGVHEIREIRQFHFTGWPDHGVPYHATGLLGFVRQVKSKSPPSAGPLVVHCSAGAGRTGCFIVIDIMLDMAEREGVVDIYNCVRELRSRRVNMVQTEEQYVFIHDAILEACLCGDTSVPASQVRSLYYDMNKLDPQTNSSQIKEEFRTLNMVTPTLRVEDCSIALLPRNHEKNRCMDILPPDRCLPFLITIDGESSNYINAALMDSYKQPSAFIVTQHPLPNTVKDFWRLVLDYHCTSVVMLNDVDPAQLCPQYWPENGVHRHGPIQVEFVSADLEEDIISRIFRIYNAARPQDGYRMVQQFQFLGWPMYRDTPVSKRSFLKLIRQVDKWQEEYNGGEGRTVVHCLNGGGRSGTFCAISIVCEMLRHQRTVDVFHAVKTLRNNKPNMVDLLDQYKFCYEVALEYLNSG
UniProt P04629: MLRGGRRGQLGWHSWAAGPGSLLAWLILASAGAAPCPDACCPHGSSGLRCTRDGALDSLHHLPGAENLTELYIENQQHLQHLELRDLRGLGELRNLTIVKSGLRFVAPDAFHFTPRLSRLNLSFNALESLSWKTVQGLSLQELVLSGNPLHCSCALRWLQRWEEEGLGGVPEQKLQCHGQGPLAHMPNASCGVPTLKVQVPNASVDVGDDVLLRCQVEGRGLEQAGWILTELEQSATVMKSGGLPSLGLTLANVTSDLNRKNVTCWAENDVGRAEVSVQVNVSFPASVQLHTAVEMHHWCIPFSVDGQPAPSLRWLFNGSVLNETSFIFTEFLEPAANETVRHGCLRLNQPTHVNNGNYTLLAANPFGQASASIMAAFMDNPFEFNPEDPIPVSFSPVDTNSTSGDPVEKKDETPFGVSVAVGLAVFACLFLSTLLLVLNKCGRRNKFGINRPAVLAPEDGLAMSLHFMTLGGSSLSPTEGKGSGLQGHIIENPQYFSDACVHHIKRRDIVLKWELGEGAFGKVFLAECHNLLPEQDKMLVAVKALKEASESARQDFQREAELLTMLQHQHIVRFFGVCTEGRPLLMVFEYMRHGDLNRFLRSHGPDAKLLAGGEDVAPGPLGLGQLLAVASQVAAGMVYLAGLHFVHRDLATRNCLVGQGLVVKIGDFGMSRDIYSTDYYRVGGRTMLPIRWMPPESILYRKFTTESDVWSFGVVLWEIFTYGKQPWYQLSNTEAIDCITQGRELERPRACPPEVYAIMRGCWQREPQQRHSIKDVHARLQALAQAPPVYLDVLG
UniProt P41143, whole entry, looked up: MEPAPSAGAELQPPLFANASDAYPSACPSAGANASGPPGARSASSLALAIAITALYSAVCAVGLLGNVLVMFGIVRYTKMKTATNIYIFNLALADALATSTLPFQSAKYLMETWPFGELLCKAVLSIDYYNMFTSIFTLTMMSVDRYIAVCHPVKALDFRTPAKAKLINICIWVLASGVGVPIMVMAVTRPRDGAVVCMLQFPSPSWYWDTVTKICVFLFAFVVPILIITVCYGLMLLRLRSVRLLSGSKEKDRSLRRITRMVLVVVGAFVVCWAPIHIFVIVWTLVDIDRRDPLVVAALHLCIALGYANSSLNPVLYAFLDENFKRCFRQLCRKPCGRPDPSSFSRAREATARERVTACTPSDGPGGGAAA

[2] = read-out: xenobiotic metabolism (CYP1A2), CYP1A2 (gene 1544); assay: CLD_CYP1A2_24hr: CellzDirect (CLD) Gene Expression Assay for xenobiotic metabolism (CYP1A2) at 24 hours (AID 2283683)
Outline: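 Primary human hepatocytes from two donor preparations dosed daily with multiple concentrations of chemical, 0.2% DMSO vehicle. CYP1A2 mRNA at 24 h quantified by qNPA chemiluminescence; gain of signal analyzed relative to DMSO. Cytotoxicity flagged by phase-contrast morphology.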

[3] = system: Thyroperoxidase (TPO), gene 445522; assay: CCTE_Simmons_GUA_TPO: CCTE's Guaiacol Assay for Thyroperoxidase (TPO) Inhibition, Simmons Lab (AID 2283750)
Outline: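 Porcine thyroid microsomes (25 ug) in 200mM potassium phosphate, preincubated 30 s at 37C with compound (8 concentrations, 5 nM–87.5 uM) and 35mM guaiacol; 1mM H2O2 starts reaction. Absorbance change at 450nm over first 80 s; loss of signal versus DMSO, three replicates.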

[4] = CCTE_Shafer_MEA_dev_LDH: CCTE's Lactate Dehydrogenase Assay for Cytotoxicity in the Neural Network Formation Assay, Shafer Lab (AID 2284068);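 also: exposure for twelve days from plating with re-dosing on DIV 5 and 9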
Outline: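 Primary rat cortical neurons were cultured on PEI-coated MEA plates and exposed from plating through day 12, with compound renewed at medium changes on DIV 5 and 9. LDH activity was read spectrophotometrically; loss of signal versus DMSO indicates reduced viability.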

[5] = TAMU_HCS_1.5hr_SingleDonor1434_Cytotoxicity: Cytotoxicity Assessment using High-content Screening (HCS) Fluorescent Imaging for the Texas A&M University (TAMU) 1.5-hr Human Induced Pluripotent Stem Cell (iPSC)-derived Cardiotoxicity Assay (AID 2284234)
Outline: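 Human iPSC-derived cardiomyocytes dosed at 0.2, 1, 10, 100 uM final (0.5% DMSO) for 90 min at 37 C. Hoechst 33342-stained nuclei counted by 10x high-content imaging; POD is EC10, a 10% drop in total cell count versus DMSO.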

[6] = TAMU_PeakParms_SingleDonor1434_QT: Texas A&M University (TAMU) 1.5-hr Human Induced Pluripotent Stem Cell (iPSC)-derived Cardiomyocytes Calcium (Ca+2) Flux Assay for Cardiotoxicity: QT (decay-rise ratio) (AID 2284235)
Outline: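 iPSC-derived cardiomyocytes (single donor 1434) dosed at 0.2, 1, 10, 100 uM final in 0.5% DMSO, 90 min at 37C. Ca2+ flux fluorescence decay/rise ratio; EC05 (5% increase versus DMSO) as POD, excluding beat-arrest and severe-notch data.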

[7] = CCTE_Mundy_HCI_iCellGluta_NOG_NeuriteLength: CCTE's Neurite Outgrowth Assay in iCellGluta cells for Neurite Length, Mundy Lab (AID 2284318)
Outline: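 Automated high-content imaging of betaIII-tubulin (Alexa Fluor-488) and Hoechst-stained cells gave neurite length, normalized to the DMSO baseline.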

[8] = target: human Acid Phosphatase 1 (ACP1), ACP1 (gene 52) (UniProt P24666); assay: NVS_ENZ_hACP1: NovaScreen (NVS) Enzymatic Assay for human Acid Phosphatase 1 (ACP1) (AID 2283136)
Outline: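 Recombinant enzyme expressed in Sf9 cells, tested cell-free; activity read by fluorescence with electrophoretic mobility shift separation of substrate and product, 1.5 h after dosing. Primary screen in duplicate at 25 uM, actives then run in concentration series; loss of signal versus DMSO.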

[9] = target: human AKT serine/threonine Kinase 2 (AKT2), AKT2 (gene 208) (UniProt P31751); assay: NVS_ENZ_hAKT2: NovaScreen (NVS) Enzymatic Assay for human AKT serine/threonine Kinase 2 (AKT2) (AID 2283141)
Outline: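 Cell-free fluorescence/electrophoretic mobility shift readout of recombinant human AKT2 activity, 1 h after chemical dosing. Duplicate primary screen at 25 uM, then singleton concentration-response up to 50 uM; loss of signal versus DMSO baseline.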

[10] = target: human Colony Stimulating Factor 1 Receptor (CSF1R), CSF1R (gene 1436) (UniProt P07333); assay: NVS_ENZ_hCSF1R: NovaScreen (NVS) Enzymatic Assay for human Colony Stimulating Factor 1 Receptor (CSF1R) (AID 2283150)
Outline: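 Cell-free recombinant human CSF1R kinase with fluorescent substrate, product separated by electrophoretic mobility shift; read 1 h after dosing. Primary screen at 25 uM in duplicate, actives then in concentration-response up to 50 uM, relative to DMSO.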

[11] = target: human Janus Kinase 2 (Jak2), JAK2 (gene 3717) (UniProt O60674); assay: NVS_ENZ_hJak2: NovaScreen (NVS) Enzymatic Assay for human Janus Kinase 2 (Jak2) (AID 2283169)
Outline: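 Cell-free recombinant human JAK2 enzyme activity assay, fluorescence/electrophoretic mobility shift read 1 h after dosing. Screened in duplicate at 25 uM, then concentration-response up to 50 uM; activity as signal loss relative to DMSO.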

[12] = target: human Matrix Metalloproteinase-3 (MMP3), MMP3 (gene 4314) (UniProt P08254); assay: NVS_ENZ_hMMP3: NovaScreen (NVS) Enzymatic Assay for human Matrix Metalloproteinase-3 (MMP3) (AID 2283185)
Outline: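 Cell-free recombinant human MMP3 activity, fluorescence intensity read 1 h after dosing. Primary screen duplicate at 25 uM, actives retested in concentration series; loss of signal vs DMSO baseline.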

[13] = target: human Mitogen- and Stress-activated Protein Kinase-1 (Msk1), RPS6KA5 (gene 9252) (UniProt O75582); assay: NVS_ENZ_hMsk1: NovaScreen (NVS) Enzymatic Assay for human Mitogen- and Stress-activated Protein Kinase-1 (Msk1) (AID 2283187)
Outline: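 Recombinant kinase with fluorescent substrate; product separated by electrophoretic mobility shift, read 1 h after dosing. Screened in duplicate at 25 uM; hits (e.g. ≥30% inhibition) tested in concentration–response up to 50 uM. DMSO baseline.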

[14] = target: Serine/threonine-protein phosphatase PP1-alpha catalytic subunit (Homo sapiens) (UniProt P62136); assay: NVS_ENZ_hPPP1CA: NovaScreen (NVS) Enzymatic Assay for human Protein Phosphatase 1 Aatalytic subunit Alpha (PPP1CA) (AID 2283200)
Outline: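 Recombinant enzyme activity read by fluorescence with electrophoretic mobility shift separating substrate from product, 1.33 h after dosing; loss of signal vs DMSO baseline. Primary screen in duplicate at 25 uM; actives retested in concentration-response up to 50 uM.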

[15] = target: human Protein Tyrosine Phosphatase Receptor Type F (PTPRF), PTPRF (gene 5792) (UniProt P10586); assay: NVS_ENZ_hPTPRF: NovaScreen (NVS) Enzymatic Assay for human Protein Tyrosine Phosphatase Receptor Type F (PTPRF) (AID 2283213)
Outline: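 Cell-free fluorescence enzyme assay with recombinant protein and substrate; product separated by electrophoretic mobility shift. Read 1 h after dosing, single 25 uM duplicate screen, then concentration-response up to 50 uM; loss of signal vs DMSO.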

[16] = target: human Protein Tyrosine Phosphatase Receptor Type M (PTPRM), PTPRM (gene 5797) (UniProt P28827); assay: NVS_ENZ_hPTPRM: NovaScreen (NVS) Enzymatic Assay for human Protein Tyrosine Phosphatase Receptor Type M (PTPRM) (AID 2283215)
Outline: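 Cell-free recombinant PTPRM with fluorogenic substrate; product separated from substrate by electrophoretic mobility shift and read by fluorescence, 1.33 h after dosing. Primary screen single concentration (25 uM) in duplicate; actives retested in concentration series; loss of signal versus DMSO.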

[17] = target: human Tropomyosin Receptor Kinase A (TRKA), NTRK1 (gene 4914) (UniProt P04629); assay: NVS_ENZ_hTrkA: NovaScreen (NVS) Enzymatic Assay for human Tropomyosin Receptor Kinase A (TRKA) (AID 2283224)
Outline: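 Recombinant human TrkA activity read after 1 h by fluorescence with electrophoretic mobility shift separating substrate and product. Primary screen in duplicate at 25 uM; actives were rerun in concentration-response up to 50 uM. Loss of signal versus DMSO.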

[18] = system: bovine Angiotensin II Receptor Type 2 (AT2), gene 407157; assay: NVS_GPCR_bAT2: NovaScreen (NVS) G Protein-Coupled Receptor Assay for bovine Angiotensin II Receptor Type 2 (AT2) (AID 2283240)
Outline: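 Radioligand displacement on bovine cerebellar membranes, 1 hour incubation, filter-based scintillation counting; loss of signal vs DMSO. Duplicate single-point screen at 25 uM, then concentration-response to 50 uM maximum.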

[19] = NVS_GPCR_bNPY_NonSelective: NovaScreen (NVS) G Protein-Coupled Receptor Assay for bovine Neuropeptide Y (NPY) Receptor, Non-selective Binding (AID 2283245)
Outline: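 Bovine hippocampal membranes incubated 1 hour with radioligand and test chemical. Bound ligand measured by filter-based scintillation counting. Single-concentration screen at 25 uM in duplicate, then concentration-response up to 50 uM.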

[20] = target: human Opioid Receptor Delta 1 (Opiate D1), OPRD1 (gene 4985) (UniProt P41143); assay: NVS_GPCR_hOpiate_D1: NovaScreen (NVS) G Protein-Coupled Receptor Assay for human Opioid Receptor Delta 1 (Opiate D1) (AID 2283280)
Outline: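 Radioligand displacement on membranes from CHO cells expressing the receptor, read by filter scintillation counting 1 h after dosing. Duplicate single-point screen at 25 uM, then concentration series for actives; loss of signal versus DMSO.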

**Q.** With `c1ccc(Nc2ccccc2)cc1` as the molecule, how does the AC50 [1] read?
**A.** inconclusive: 0.0004 µM

**Q.** And the AC50 [2]?
**A.** active: 6.41 µM

**Q.** And the AC50 [3]?
**A.** inconclusive: 49.6 µM

**Q.** For `COC(=O)[C@H](Cc1ccccc1)NC(=O)[C@@H](N)CC(=O)O` (HELM PEPTIDE1{D.F.[CO[*:1]]}$$$$V2.0), which outcome [4] is on record?
**A.** inactive

**Q.** What about the outcome [5] of the same molecule?
**A.** inactive

**Q.** And the AC50 [6]?
**A.** inconclusive: 50 µM

**Q.** What about the AC50 [7] of the same molecule?
**A.** inconclusive: 15 µM

**Q.** For `CCCCCCCC/C=C\CCCCCCCC(=O)OC[C@@H](O)[C@H]1OC[C@H](O)[C@H]1O`, which AC50 [8] is on record?
**A.** inconclusive: 25 µM

**Q.** And the AC50 [9]?
**A.** active: 42.1 µM

**Q.** And the AC50 [10]?
**A.** inconclusive: 0.0995 µM

**Q.** And the AC50 [11]?
**A.** inconclusive: 25 µM

**Q.** What about the AC50 [12] of the same molecule?
**A.** inconclusive: 25 µM

**Q.** What about the outcome [13] of the same molecule?
**A.** inactive

**Q.** What about the AC50 [14] of the same molecule?
**A.** inconclusive: 25 µM

**Q.** And the outcome [15]?
**A.** inactive

**Q.** What about the AC50 [16] of the same molecule?
**A.** inconclusive: 25 µM

**Q.** And the AC50 [17]?
**A.** inconclusive: 5.92 µM

**Q.** What about the outcome [18] of the same molecule?
**A.** inactive

**Q.** What about the AC50 [19] of the same molecule?
**A.** inconclusive: 25 µM

**Q.** And the AC50 [20]?
**A.** inconclusive: 25 µM

From PubChem BioAssay (EPA / NIEHS)
